# Reference: PubChem BioAssay AID743255 (National Center for Advancing Translational Sciences (NCATS), 2014)
# Protein sequences, listed by entry. Tags and fused reporters are not part of them. Lines headed by an entry give the natural chain unless they say otherwise; changes in a name come on top.
# UniProt O94782: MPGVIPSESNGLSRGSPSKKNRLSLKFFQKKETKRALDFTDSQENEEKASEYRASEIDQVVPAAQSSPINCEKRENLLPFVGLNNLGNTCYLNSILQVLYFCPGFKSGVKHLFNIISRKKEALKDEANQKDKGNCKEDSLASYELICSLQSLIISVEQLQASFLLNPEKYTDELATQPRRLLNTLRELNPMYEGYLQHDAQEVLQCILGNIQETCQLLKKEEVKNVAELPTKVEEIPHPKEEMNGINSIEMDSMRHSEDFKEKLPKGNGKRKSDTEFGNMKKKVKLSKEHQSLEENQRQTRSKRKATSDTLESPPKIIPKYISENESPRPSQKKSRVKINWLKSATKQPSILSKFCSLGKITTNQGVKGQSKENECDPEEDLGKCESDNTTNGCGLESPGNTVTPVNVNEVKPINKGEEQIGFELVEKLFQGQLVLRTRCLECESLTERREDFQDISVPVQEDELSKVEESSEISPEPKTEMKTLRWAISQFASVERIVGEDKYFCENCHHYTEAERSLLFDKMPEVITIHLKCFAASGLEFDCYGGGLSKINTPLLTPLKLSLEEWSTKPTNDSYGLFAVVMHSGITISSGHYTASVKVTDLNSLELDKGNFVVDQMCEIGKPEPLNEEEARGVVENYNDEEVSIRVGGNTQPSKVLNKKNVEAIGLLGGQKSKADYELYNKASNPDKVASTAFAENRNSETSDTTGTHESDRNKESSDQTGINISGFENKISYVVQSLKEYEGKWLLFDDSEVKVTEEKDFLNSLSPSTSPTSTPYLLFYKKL
# About 910 (0.23%) of roughly 390,000 compounds were called active. Inconclusive means that the source gave no clear call. Such entries were picked first, then a sample of the others. The call rests on the fitted dose curve; in most records, active means well fitted inhibition curve with a large enough effect; inconclusive means small, poorly fitted or top-dose-only effect; inactive means no such curve, though single readings can be large or run the other way. A potency beside an inconclusive call is a rough fit, not a confirmed value.
# Biological target: Ubiquitin carboxyl-terminal hydrolase 1 (Homo sapiens) (UniProt O94782)
# Test: Inhibitors of USP1/UAF1: Primary Screen; further: nearly all actives have a fitted effect of over 60% in size
# Conditions: recombinant USP1/UAF1, Ub-Rhodamine cleavage fluorescence; activity change, negative = inhibition: at 57.1 µM (top of the series)
# Summary of the method: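 Step one: compound is pinned into 1nM USP1/UAF1 in HEPES pH 7.8 buffer with TCEP. Step two: 15 min room-temperature incubation. Step three: Ub-Rho (150nM final) starts cleavage, tracked by fluorescence over six one-minute reads.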
# On the % scale 0 is the no-effect control and ±100 the full control effect; potency means the concentration at half of the fitted maximal effect.
Structure (SMILES),"activity change, negative = inhibition",Potency
O=C(Nc1ccnn1C1CCN(Cc2ccccn2)CC1)c1cccc(F)c1,inactive: -11.7%,–
Cc1ccc(N)c(C(O)(C(F)(F)F)C(F)(F)F)c1,–,"inconclusive: 0.794 µM [inhibitor, full curve]"
Cc1ccc(Cl)cc1N1CCN(C(=O)c2noc(C(C)C)c2[N+](=O)[O-])CC1,inactive: -14.7%,–
NNC(=O)c1csc(COc2cc(Cl)cc(Cl)c2)n1,–,"inconclusive: 39.8 µM [inhibitor, partial curve, poor fit]"
CCc1ccc(NC(=O)c2cc(S(=O)(=O)N3CCCC(C)C3)cn2C)cc1 (stereo not drawn),inactive: -21.5%,–
Cc1ccc(NC(=O)N2CCN(S(=O)(=O)c3ccccc3)CC2)cc1,inactive: 7.55%,–
Cc1ccccc1CCNC(=O)c1ccc(Cn2c(=O)c3cccn3c3cccnc32)cc1,inactive: -15.9%,–
O=C(CSc1nccn1Cc1ccc(Cl)cc1)Nc1nc2ccccc2s1,–,"inconclusive: 44.7 µM [inhibitor, partial curve, poor fit]"
COCCCNC(=O)c1cc2c(-c3cccc(OC)c3)nn(C)c2s1,–,"inconclusive: 0.562 µM [inhibitor, full curve, poor fit]"
CN(C)c1ccc(NC(=O)Oc2ccccc2)cc1,inactive: -18.1%,–
CC(C)(C)CN1CCNC(=O)C1CC(=O)NCCc1cnn(-c2ccccc2)c1 (stereo not drawn),–,"inconclusive: 0.224 µM [inhibitor, full curve, poor fit]"
CCCCC[C@H]1CN(Cc2ccccc2)C(=O)[C@@H]1CC(=O)NCc1ccc(OC)cc1,–,"inconclusive: 5.01 µM [inhibitor, full curve, poor fit]"
COC(=O)CSc1nnc(COc2ccc3ccccc3c2)o1,inactive: -18%,–
NC(=O)C1CCN(C(=O)C2(NC(=O)Nc3cccc(F)c3)CCCCC2)CC1,–,"inconclusive: 0.355 µM [inhibitor, full curve, poor fit]"
CC(C)[C@@H](C(=O)NC1CCN(Cc2ccccc2)CC1)N1C(=O)N2CCc3c([nH]c4ccccc34)[C@@]2(C)C1=O,inactive: 18.7%,–
CCOC(=O)/C=c1\s/c(=C(\C#N)C(=O)NC)n(-c2ccccc2)c1=O,inactive: 3.91%,–
CN(C)c1nc(N)nc(-c2cccnc2)n1,inactive: -6.06%,–
CC(C)NC(=O)C1CCN(c2nc3ccccc3nc2C(F)(F)F)CC1,inactive: -4.35%,–
CCC1CN(C(=O)N2CCC(C(=O)NCc3ccccc3C)CC2)c2ccccc2O1 (stereo not drawn),–,"inconclusive: 3.98 µM [inhibitor, full curve]"
CCCCCCc1ccc(N2C[C@H](C)[C@@H](CC(=O)NCc3ccccc3)C2=O)cc1,–,"inconclusive: 0.316 µM [inhibitor, full curve]"
Cc1cc(/N=C/C=C2\N(C)c3ccccc3C2(C)C)n(CCC#N)n1,inactive: 3.74%,–
O=C(CN1CCN(Cc2ccccc2Cl)C1=O)NCC1CCCO1 (stereo not drawn),–,"inconclusive: 39.8 µM [inhibitor, single point]"

# Entries from the list above containing an aryl methoxy group (2):
Structure (SMILES),"activity change, negative = inhibition",Potency
COCCCNC(=O)c1cc2c(-c3cccc(OC)c3)nn(C)c2s1,–,"inconclusive: 0.562 µM [inhibitor, full curve, poor fit]"
CCCCC[C@H]1CN(Cc2ccccc2)C(=O)[C@@H]1CC(=O)NCc1ccc(OC)cc1,–,"inconclusive: 5.01 µM [inhibitor, full curve, poor fit]"

# Following part

Structure (SMILES),"activity change, negative = inhibition",Potency
O=C(O)c1ccc2c(c1)S(=O)(=O)c1cc(Cl)ccc1C2=O,–,"inconclusive: 2.82 µM [inhibitor, full curve, poor fit]"
COc1cc(C(F)(F)F)c(C(=O)NCc2cccc(Cl)c2)cn1,–,"inconclusive: 7.94 µM [inhibitor, partial curve, poor fit]"
COC(=O)CN1C(=O)[C@H]2[C@@H](/C=C/c3ccccc3)N3C(=O)CN(Cc4ccccc4)C(=O)[C@@]3(Cc3ccccc3)[C@H]2C1=O,–,"inconclusive: 2.24 µM [inhibitor, full curve, poor fit]"
O=C1N/C(=N\S(=O)(=O)Cc2ccccc2)S/C1=C/c1cc([N+](=O)[O-])ccc1O,–,"inconclusive: 6.31 µM [inhibitor, partial curve]"
CCOc1ccccc1N1CCN(Cc2ccc(Br)s2)CC1,–,"inconclusive: 15.8 µM [inhibitor, partial curve]"
COc1ccc2c(c1)c1c(c(=O)n(-c3ccccc3)c(=O)n1CC(=O)Nc1ccc(C)c(C)c1)n2C,inactive: -3.72%,–
O=C(NCC1CCCO1)c1c[nH]c2ccc(S(=O)(=O)Nc3cccc(C(F)(F)F)c3)cc2c1=O (stereo not drawn),inactive: 3.34%,–
CN1/C(=C/C(=O)c2nc(S(C)(=O)=O)ncc2Cl)C(C)(C)c2ccccc21,inactive: -25.6%,–
Cc1cccc(N(C)C(=O)CSc2nc3ncccc3o2)c1,inactive: -9.84%,–
Cc1ccc2c(c1)cc1c(=O)n(CC(=O)N3CCCCC3)nc(C)n12,–,"inconclusive: 31.6 µM [inhibitor, single point]"
COc1ccc2[nH]c(=O)c(-c3nnn(-c4ccc(Cl)nc4)n3)cc2c1,–,"inconclusive: 39.8 µM [inhibitor, partial curve, poor fit]"
Cc1ccc(-n2ncc3c(N4CCC(Cc5ccccc5)CC4)ncnc32)cc1,–,"inconclusive: 70.8 µM [inhibitor, partial curve, poor fit]"
Cc1c(Cl)cccc1NC(=O)Cn1cnc2nc3c(cc2c1=O)CCCC3,–,"inconclusive: 3.55 µM [inhibitor, single point]"
COc1ccc(S(=O)(=O)Cc2ccc(C(=O)N3CCc4ccccc4C3)o2)cc1,–,"inconclusive: 4.47 µM [inhibitor, full curve, poor fit]"
COc1cccc(NC(=O)CSc2nc3ccccc3c(=O)n2CCCC(=O)NCC2CCCO2)c1 (stereo not drawn),–,"inconclusive: 5.62 µM [inhibitor, full curve, poor fit]"
COc1ccc(C2CNC(=O)C2)cc1OC1CCCC1 (stereo not drawn),–,"inconclusive: 70.8 µM [inhibitor, partial curve, poor fit]"
O=C1C(Cl)=C(NCc2ccco2)C(=O)c2ccccc21,–,"inconclusive: 17.8 µM [inhibitor, partial curve]"
CC(Cc1ccccc1)C(=O)N1CCN(C)CC1 (stereo not drawn),–,"inconclusive: 44.7 µM [inhibitor, partial curve]"
CC(C)Sc1ncc(Cl)c(C(=O)Nc2ccc(S(=O)(=O)N(C)c3ccccc3)cc2)n1,inactive: -30.1%,–
COC(=O)CCn1cnc2onc(-c3cc(F)cc(F)c3)c2c1=O,–,"inconclusive: 15.8 µM [inhibitor, partial curve, poor fit]"
O=C(CN1C(=O)NC2(CCc3ccccc32)C1=O)Nc1cccc(Cl)c1 (stereo not drawn),–,"inconclusive: 7.94 µM [inhibitor, partial curve, poor fit]"
